Data: PubChem BioAssay AID2685 (National Center for Advancing Translational Sciences (NCATS), 2010)
This is one part of the list. The main result of the screen is listed elsewhere. These columns were measured beside it and carry no call. Most of these compounds were active or inconclusive in the main read-out, so they are no random draw. Words in brackets tell the shape of the fitted curve; partial curves, single points and poor fits give uncertain potencies.

Assay: qHTS Assay for Lipid Storage Modulators in Drosophila S3 Cells;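 on cell number change: cells counted by Cell Tracker Red CMTPX staining in the red channel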
Conditions: BODIPY lipid droplet fluorescence, 18-24 h; for cell number change: measured here: cell count max response, cells fed with added oleic acid
Outline: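 Drosophila S3 cells loaded with oleic acid (400 uM, as added) and compounds at several concentrations; lipid droplets imaged by 488-nm laser-scanning cytometry, 500–530 nm intensity and object ratio to cell channel. Percent activity normalized to 20 uM Triacsin C.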

[1] = measured here: lipid fluorescence (Fed channel) AC50, cells fed with added oleic acid
[2] = measured here: cell number channel AC50, cells fed with added oleic acid

Row | SMILES | cell number change | AC50 [1] | AC50 [2]
1 | COc1ccc(N2CCOCC2)c(NC(=O)COc2cccc(C)c2)c1 | 20.4% | 6.51 µM [falling, single point] | 
2 | CCOC(=O)CN(C(=O)CSc1nnc(-c2ccncc2)n1CCCN(C)C)c1ccccc1 | -34.6% | 0.146 µM [falling, full curve] | 0.184 µM [falling, full curve]
3 | O=C(CC1Sc2ncnn2C1=O)Nc1ccc(Cl)cc1 (configuration not stated) |  |  | 3.26 µM [rising, single point]
4 | O=C(c1cccc(Cl)c1)N1CCCC(C(=O)N2CCN(c3ccccc3)CC2)C1 (configuration not stated) | -18.8% | 6.51 µM [rising, single point] | 0.366 µM [rising, single point]
5 | COc1ccccc1CNC(=O)c1ccccc1OCc1ccc(F)cc1 | 12.3% | 18.4 µM [rising, partial curve, poor fit] | 
6 | CCN1C(=O)c2cccc3c(S(=O)(=O)Nc4ccccc4O)ccc1c23 | -20.5% |  | 0.0058 µM [rising, full curve, poor fit]
7 | CCc1cc(C(=O)NNC(=S)Nc2ccccc2C)cs1 | -38.5% |  | 0.103 µM [falling, full curve, poor fit]
8 | COc1ccccc1C(=O)Nc1ccc(NC(=O)C2CCCCC2)nc1 | 4.27% |  | 
9 | Cc1c(-c2ccccc2)oc2c(C(=O)OCC(=O)Nc3cccc(F)c3)cccc2c1=O | 3.41% | 25.9 µM [rising, single point] | 
10 | COc1ccccc1OCC(=O)Nc1ccc(S(=O)(=O)NC(C)=O)cc1 | 3.44% |  | 
11 | Cc1ccc(CNC(=O)CS(=O)(=O)Cc2nc(-c3ccccc3F)oc2C)cc1 | -6.63% |  | 
12 | COCCNC(=O)C(c1ccc(C)cc1)N(C(=O)CCC(=O)Nc1ccccn1)c1ccccc1C (configuration not stated) | -12.1% |  | 
13 | CCC(C)[C@H](NC(=O)NCCCOC(C)C)C(=O)OC (some centres not stated) | 4% |  | 6.51 µM [falling, single point]
14 | CC(C)(C)c1ccc(OCC(=O)OCCNC(=O)c2cccnc2)cc1 | -14.7% |  | 4.61 µM [falling, single point]
15 | O=C1CC(C(=O)O)(c2ccccc2)c2cccc(F)c21 (configuration not stated) | 41.1% | 29.1 µM [rising, single point] | 29.1 µM [rising, single point]
16 | Cc1ccc(C(=O)N[C@H](C(=O)OCC(=O)c2ccc[nH]2)C(C)C)cc1 |  | 2.31 µM [rising, partial curve, poor fit] | 
17 | COCCN(C(=O)c1ccc(-c2ccc([N+](=O)[O-])cc2)o1)c1c(N)n(CC(C)C)c(=O)[nH]c1=O |  | 0.00461 µM [rising, full curve, poor fit] | 
18 | COCc1cccc(NC(=O)CCc2ccccc2)c1 | 2.94% |  | 
19 | CN(C(=O)CSc1nc2cc(C(=O)O)ccc2c(=O)n1Cc1ccccc1)C1CCS(=O)(=O)C1 (configuration not stated) | -76.6% |  | 29.1 µM [falling, single point]
20 | O=C(c1cccc(S(=O)(=O)N2CCCCC2)c1)N1CCN(S(=O)(=O)c2ccc(F)cc2)CC1 | -0.583% | 25.9 µM [falling, single point] | 

Ordered by molar mass (smallest number first): some entries from above.
Row | SMILES | cell number change | AC50 [1] | AC50 [2]
3 | O=C(CC1Sc2ncnn2C1=O)Nc1ccc(Cl)cc1 (configuration not stated) |  |  | 3.26 µM [rising, single point]
9 | Cc1c(-c2ccccc2)oc2c(C(=O)OCC(=O)Nc3cccc(F)c3)cccc2c1=O | 3.41% | 25.9 µM [rising, single point] | 
12 | COCCNC(=O)C(c1ccc(C)cc1)N(C(=O)CCC(=O)Nc1ccccn1)c1ccccc1C (configuration not stated) | -12.1% |  | 

(further entries)

Row | SMILES | cell number change | AC50 [1] | AC50 [2]
21 | O=S(=O)(c1ccccc1)N1CCN=C1SCc1cccc(Cl)c1 | 33% |  | 14.6 µM [rising, single point]
22 | COc1ccc(C(=O)OCCN2C(=O)c3ccccc3C2=O)cc1 | -2.4% |  | 
23 | Cc1ccc(C(C(=O)NC(C)(C)C)N(Cc2ccccc2)C(=O)c2snc(C(N)=O)c2N)o1 (configuration not stated) | -53.6% |  | 29.1 µM [falling, single point]
24 | CC(NC(=O)C(C)N1CCN(S(=O)(=O)c2ccccc2)CC1)c1ccccc1 (configuration not stated) | 25.7% | 2.06 µM [rising, full curve] | 1.64 µM [rising, full curve, poor fit]
25 | COc1cc(CNCCO)cc(Br)c1OCc1cccs1 | -10.6% | 6.51 µM [rising, single point] | 
26 | NC(=O)CNC(=O)[C@@H]1CC2(CC(c3ccc(Cl)cc3)=NO2)CN1C(=O)c1ccc(Br)cc1 (some centres not stated) | -11.8% | 25.9 µM [falling, single point] | 
27 | O=C(Cc1cccs1)N1CCN=C1SCc1ccccc1F | 46.5% | 14.6 µM [rising, partial curve] | 11.6 µM [rising, partial curve, poor fit]
28 | O=c1c2ccccc2cnn1Cc1n[nH]c(=S)n1-c1ccccc1F | 13% |  | 
29 | CCCCCCCCCCCCCCCC[n+]1ccc(C(N)=O)cc1 | -10% | 32.6 µM [falling, single point] | 
30 | COC(=O)N1CCN(CCc2ccccc2)CC1 | -23.1% |  | 4.61 µM [falling, full curve, poor fit]
31 | Cc1cc(C)cc(-c2nnc(SCC(=O)N3CCN(C(=O)c4ccco4)CC3)o2)c1 | 4.24% | 4.11 µM [rising, single point] | 
32 | CC1(C)NC(=O)N(CC(O)CN(c2ccccc2)S(=O)(=O)c2ccccc2)C1=O (configuration not stated) | -4.17% | 0.00651 µM [falling, full curve, poor fit] | 
33 | Cc1ccc(Nc2nc(N)c([N+](=O)[O-])c(NCc3ccco3)n2)cc1C | -23.3% | 20.6 µM [falling, single point] | 
34 | O=C(c1cccc(F)c1)N1CCC(N2CCCCCC2)CC1 | -46.8% | 5.8 µM [falling, full curve] | 2.59 µM [falling, full curve]
35 | O=[N+]([O-])c1ccc(S(=O)(=O)Nc2nnc(C3CCCCC3)s2)cc1 | -3.48% |  | 
36 | Cc1cc(OC(C)C(=O)NCCCn2ccnc2)c2c(C)cc(=O)oc2c1 (configuration not stated) | 5.65% |  | 
37 | CCOC(=O)c1cc(NC(=O)Nc2ccc(OC)c(OC)c2)c(C)nc1C | 17.6% | 0.00461 µM [rising, full curve, poor fit] | 
38 | CN(CCc1ccccc1)C1CCCN(S(=O)(=O)c2cccc(F)c2)C1 (configuration not stated) | 15.8% | 6.51 µM [rising, single point] | 
39 | CCOc1ccc2nc(NC(=O)CSc3nc4c(c(=O)n(C)c(=O)n4C)n3C(C)C)sc2c1 | 0.284% |  | 0.231 µM [rising, full curve, poor fit]
